From patent US20190374627A1, “TARGET PEPTIDES FOR CANCER THERAPY AND DIAGNOSTICS” (priority 2016, published 2019)

How the values were obtained:
Set-up in all cases: key: The presence of phosphopeptides in previously analyzed samples including leukemia, colorectal cancer, melanoma, ovarian cancer, breast cancer, and esophageal cancer is indicated by ✓
colorectal cancer = assay: Presence of the phosphopeptide in previously analyzed colorectal cancer samples
esophageal cancer = assay: Presence of the phosphopeptide in previously analyzed esophageal cancer samples
ovarian cancer = assay: Presence of the phosphopeptide in previously analyzed ovarian cancer samples
melanoma = assay: Presence of the phosphopeptide in previously analyzed melanoma samples
leukemia = assay: Presence of the phosphopeptide in previously analyzed leukemia samples

In the case of “16 (KAFSPVRSV; (4)...(4) The amino acid at this position is optionally phosphorylated; listed as Homo sapiens) [compound 16]”, the Colorectal (colorectal cancer) was “✓”, the Esophageal (esophageal cancer) was “✓” and the Ovarian (ovarian cancer) was “✓”.

With “19 (KLASPELERL; (4)...(4) The amino acid at this position is optionally phosphorylated; listed as Homo sapiens) [compound 19]” the Colorectal (colorectal cancer) was “✓”, the Ovarian (ovarian cancer) was “✓” and the Melanoma (melanoma) was “✓”.

In the case of “21 (KLFPDTPLAL; (6)...(6) The amino acid at this position is optionally phosphorylated; listed as Homo sapiens) [compound 21]”, the Colorectal (colorectal cancer) was “✓”, the Ovarian (ovarian cancer) was “✓” and the Melanoma (melanoma) was “✓”.

With “22 (KLIDIVSSQKV; (7)...(7) The amino acid at this position is optionally phosphorylated; listed as Homo sapiens) [compound 22]” the Colorectal (colorectal cancer) was “✓”, the Ovarian (ovarian cancer) was “✓” and the Melanoma (melanoma) was “✓”.

In the case of “43 (RLSSPLHFV; (4)...(4) The amino acid at this position is optionally phosphorylated; listed as Homo sapiens) [compound 43]”, the Colorectal (colorectal cancer) was “✓”, the Ovarian (ovarian cancer) was “✓” and the Melanoma (melanoma) was “✓”.

“48 (RQDSTPGKVFL; (4)...(4) The amino acid at this position is optionally phosphorylated; listed as Homo sapiens) [compound 48]” was tested, and the Colorectal (colorectal cancer) was “✓”, the Ovarian (ovarian cancer) was “✓” and the Melanoma (melanoma) was “✓”.

For “49 (RQISQDVKL; (4)...(4) The amino acid at this position is optionally phosphorylated; listed as Homo sapiens) [compound 49]”, the Colorectal (colorectal cancer) was “✓”, the Esophageal (esophageal cancer) was “✓” and the Ovarian (ovarian cancer) was “✓”. The Melanoma (melanoma) was “✓”.

For “51 (RQLSSGVSEI; (4)...(4) The amino acid at this position is optionally phosphorylated; listed as Homo sapiens) [compound 51]”, the Colorectal (colorectal cancer) was “✓”, the Ovarian (ovarian cancer) was “✓” and the Melanoma (melanoma) was “✓”.

For “54 (RTFSPTYGL; (4)...(4) The amino acid at this position is optionally phosphorylated; listed as Homo sapiens) [compound 54]”, the Esophageal (esophageal cancer) was “✓”, the Ovarian (ovarian cancer) was “✓” and the Melanoma (melanoma) was “✓”.

In the case of “57 (RVASPTSGV; (4)...(4) The amino acid at this position is optionally phosphorylated; listed as Homo sapiens) [compound 57]”, the Colorectal (colorectal cancer) was “✓”, the Ovarian (ovarian cancer) was “✓” and the Melanoma (melanoma) was “✓”.

For “76 (VMIGSPKKV; (5)...(5) The amino acid at this position is optionally phosphorylated; listed as Homo sapiens) [compound 76]”, the Colorectal (colorectal cancer) was “✓”, the Ovarian (ovarian cancer) was “✓” and the Melanoma (melanoma) was “✓”.

“81 (APRRYSSSL; (6)...(6) The amino acid at this position is optionally phosphorylated; listed as Homo sapiens) [compound 81]” was tested, and the Leukemia (leukemia) was “✓”, the Colorectal (colorectal cancer) was “✓” and the Esophageal (esophageal cancer) was “✓”. The Melanoma (melanoma) was “✓”.

With “140 (RPISPPHTY; (4)...(4) The amino acid at this position is optionally phosphorylated; listed as Homo sapiens) [compound 140]” the Esophageal (esophageal cancer) was “✓”.

“149 (RPMSESPHM; (4)...(4) The amino acid at this position is optionally phosphorylated; listed as Homo sapiens) [compound 149]” was tested, and the Esophageal (esophageal cancer) was “✓”.

With “159 (RPRGSQSLL; (5)...(5) The amino acid at this position is optionally phosphorylated; listed as Homo sapiens) [compound 159]” the Colorectal (colorectal cancer) was “✓” and the Esophageal (esophageal cancer) was “✓”.

In the case of “191 (RPTSFADEL; (4)...(4) The amino acid at this position is optionally phosphorylated; listed as Homo sapiens) [compound 191]”, the Esophageal (esophageal cancer) was “✓”.

With “196 (RPVSTDFAQY; (4)...(4) The amino acid at this position is optionally phosphorylated; listed as Homo sapiens) [compound 196]” the Esophageal (esophageal cancer) was “✓”.

For “202 (RTRSPSPTL; (4)...(4) The amino acid at this position is optionally phosphorylated; listed as Homo sapiens) [compound 202]”, the Ovarian (ovarian cancer) was “✓” and the Melanoma (melanoma) was “✓”.

“242 (KRYSGNMEY; (4)...(4) The amino acid at this position is optionally phosphorylated; listed as Homo sapiens) [compound 242]” was tested, and the Colorectal (colorectal cancer) was “✓”, the Esophageal (esophageal cancer) was “✓” and the Melanoma (melanoma) was “✓”.

“249 (RRFSGTAVY; (4)...(4) The amino acid at this position is optionally phosphorylated; listed as Homo sapiens) [compound 249]” was tested, and the Leukemia (leukemia) was “✓”, the Colorectal (colorectal cancer) was “✓” and the Esophageal (esophageal cancer) was “✓”.

For “252 (RRFSPPRRM; (4)...(4) The amino acid at this position is optionally phosphorylated; listed as Homo sapiens) [compound 252]”, the Leukemia (leukemia) was “✓”, the Colorectal (colorectal cancer) was “✓” and the Esophageal (esophageal cancer) was “✓”.

For “257 (RRGSFEVTL; (4)...(4) The amino acid at this position is optionally phosphorylated; listed as Homo sapiens) [compound 257]”, the Colorectal (colorectal cancer) was “✓” and the Esophageal (esophageal cancer) was “✓”.

“259 (RRISDPEVF; (4)...(4) The amino acid at this position is optionally phosphorylated; listed as Homo sapiens) [compound 259]” was tested, and the Leukemia (leukemia) was “✓”, the Colorectal (colorectal cancer) was “✓” and the Ovarian (ovarian cancer) was “✓”.

In the case of “262 (RRKSQVAEL; (4)...(4) The amino acid at this position is optionally phosphorylated; listed as Homo sapiens) [compound 262]”, the Leukemia (leukemia) was “✓”, the Colorectal (colorectal cancer) was “✓” and the Esophageal (esophageal cancer) was “✓”. The Melanoma (melanoma) was “✓”.

“268 (RRMSLLSVV; (4)...(4) The amino acid at this position is optionally phosphorylated; listed as Homo sapiens) [compound 268]” was tested, and the Colorectal (colorectal cancer) was “✓”, the Esophageal (esophageal cancer) was “✓” and the Melanoma (melanoma) was “✓”.

“269 (RRNSAPVSV; (4)...(4) The amino acid at this position is optionally phosphorylated; listed as Homo sapiens) [compound 269]” was tested, and the Colorectal (colorectal cancer) was “✓” and the Esophageal (esophageal cancer) was “✓”.

In the case of “271 (RRPSLLSEF; (4)...(4) The amino acid at this position is optionally phosphorylated; listed as Homo sapiens) [compound 271]”, the Colorectal (colorectal cancer) was “✓” and the Esophageal (esophageal cancer) was “✓”.

“284 (SPRRSRSISL; (5)...(5) The amino acid at this position is optionally phosphorylated; listed as Homo sapiens) [compound 284]” was tested, and the Leukemia (leukemia) was “✓”, the Colorectal (colorectal cancer) was “✓” and the Ovarian (ovarian cancer) was “✓”. For the same substance, the Melanoma (melanoma) was “✓”.

With “289 (ITQGTPLKY; (5)...(5) The amino acid at this position is optionally phosphorylated; listed as Homo sapiens) [compound 289]” the Colorectal (colorectal cancer) was “✓”, the Esophageal (esophageal cancer) was “✓” and the Melanoma (melanoma) was “✓”.

For “294 (TMASPGKDNY; (4)...(4) The amino acid at this position is optionally phosphorylated; listed as Homo sapiens) [compound 294]”, the Colorectal (colorectal cancer) was “✓”, the Esophageal (esophageal cancer) was “✓” and the Melanoma (melanoma) was “✓”.

With “296 (YPLSPTKISQY; (4)...(4) The amino acid at this position is optionally phosphorylated; listed as Homo sapiens) [compound 296]” the Esophageal (esophageal cancer) was “✓”.

With “374 (RKPSIVTKY; (4)...(4) The amino acid at this position is optionally phosphorylated; listed as Homo sapiens) [compound 374]” the Leukemia (leukemia) was “✓” and the Esophageal (esophageal cancer) was “✓”.

With “376 (RRLSFLVSY; (4)...(4) The amino acid at this position is optionally phosphorylated; listed as Homo sapiens) [compound 376]” the Colorectal (colorectal cancer) was “✓”, the Esophageal (esophageal cancer) was “✓” and the Melanoma (melanoma) was “✓”.

In the case of “380 (SRSSSVLSL; (8)...(8) The amino acid at this position is optionally phosphorylated; listed as Homo sapiens) [compound 380]”, the Esophageal (esophageal cancer) was “✓”.

For “381 (TRKTPESFL; (4)...(4) The amino acid at this position is optionally phosphorylated; listed as Homo sapiens) [compound 381]”, the Esophageal (esophageal cancer) was “✓”.

For “385 (RSDSYVEL; (4)...(4) The amino acid at this position is optionally phosphorylated; listed as Homo sapiens) [compound 385]”, the Leukemia (leukemia) was “✓”, the Colorectal (colorectal cancer) was “✓” and the Esophageal (esophageal cancer) was “✓”.
